Values quoted from earlier work in US9987333B2, “Method for suppressing malignant tumor metastasis” (Shionogi & Co., Ltd., priority 2012, dated 2018).
At least one compound was matched to its structure with a doubt left.

How the values were obtained:
renal cell carcinoma = conditions: Non Patent Literature 25; by inhibiting tumor angiogenesis and VEGF expression; cited from earlier work
osteosarcoma = conditions: Non Patent Literature 26; cited from earlier work

CCOc1nc2cccc(C(=O)O)c2n1Cc1ccc(-c2ccccc2-c2nnn[nH]2)cc1 [candesartan]
lung metastasis of renal cell carcinoma (renal cell carcinoma): suppressed | lung and liver metastasis of osteosarcoma (osteosarcoma): suppressed
